From the supplement of paper PMC12889115 come the findings set out here.

This is one part of the list. These are raw signals, not scaled to a control.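 In the initial screen, polymyxin B was used at a concentration that permeabilizes Salmonella's outer membrane but not its inner membrane. Maximum growth was set by DMSO wells with or without polymyxin B. Since plates varied, data were ranked per plate, and compounds giving the lowest OD600 advanced as hits.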

In the test the test system is Salmonella enterica serovar Typhimurium SL1344. The test is described as follows: bacterial growth OD600 after 18 h with compound and polymyxin B; higher = more bacterial growth (less inhibition). The conditions noted are these: 50 µM, Mueller-Hinton broth.

For `Cc1ccccc1CC(C1CCN(C(=O)c2ccc(F)cc2F)CC1)N(C)C(=O)Cn1cccn1` (centres undefined), the “bacterial growth OD600” value (polymyxin B 0.75 µg/mL) stood at 0.826.

`COc1ccccc1CCNC(=O)Cc1ccc(N2CCC(NC3Cc4ccccc4C3)CC2)cc1`: for the setting “polymyxin B 0.75 µg/mL”, the “bacterial growth OD600” value worked out at 0.785. `O=C1CCC(CCC(=O)N2CCC(Oc3ccccc3Cl)CC2)(Cc2ccc(F)cc2)N1` (centres undefined): the “bacterial growth OD600” value (polymyxin B 0.75 µg/mL) was 0.076. As to `CN(Cc1ccccc1)C1(C(=O)NCCn2cccn2)Cc2ccccc2C1`, the “bacterial growth OD600” value (polymyxin B 1 µg/mL) came to 0.003. Same read-out and setting: with `Cc1cc(CN(C)C(=O)c2cccc(OC3CCN(C4CCCC4)CC3)c2)n[nH]1` the figure was 0.908. Same read-out and setting: with `COc1ccc(F)c(CN2CCCC(O)(CN3CCNC(=O)C3(C)C)C2=O)c1` (centres undefined) the figure was 0.913.

For the compound `CN(Cc1ccncn1)C(=O)c1cc(Cn2ccc3ccccc32)[nH]n1`, the “bacterial growth OD600” value (polymyxin B 0.75 µg/mL) amounted to 0.82. For the compound `COc1cccc(C(=O)NCC2CCCN(Cc3ccc(C)s3)C2)c1OC` (centres undefined), under “polymyxin B 1 µg/mL”, the “bacterial growth OD600” value stood at 0.852. Still for that read-out and setting: with `COCCC(=O)N1CCC(C(=O)Nc2ccc(Oc3ccccc3)nc2)CC1` the figure was 0.792. Consider `CCOC(=O)N1CCC(N2CCCC(C(=O)c3cccc(OC)c3)C2)CC1` (centres undefined), for which, under “polymyxin B 0.75 µg/mL”, the “bacterial growth OD600” value was 0.766. `Cc1ccn(CC(=O)N2CCCC(C(=O)c3ccc4c5c(cccc35)CC4)C2)n1` (centres undefined): the “bacterial growth OD600” value (polymyxin B 1 µg/mL) amounted to 0.584. On to `O=C1O[C@@H]2CN(Cc3ccsc3)C[C@@H]2N1C1CCCC1`, for which the “bacterial growth OD600” value (polymyxin B 0.75 µg/mL) is 0.763. Regarding `O=C(NCC1CC1)C1CCCN(C2CCN(C3Cc4ccccc4C3)CC2)C1` (centres undefined), under “polymyxin B 0.75 µg/mL”, the “bacterial growth OD600” value came out at 0.797. Turning to `Cc1ccc(CN(C)C(=O)C2CCN(c3nc(C)c4ccc(S(C)(=O)=O)cc4n3)CC2)cc1`, the “bacterial growth OD600” value (polymyxin B 0.75 µg/mL) came to 0.378. As to `O=C(NCCc1ccncc1)c1coc(COc2ccc(F)cc2Cl)n1`, the “bacterial growth OD600” value (polymyxin B 1 µg/mL) turned out to be 0.977.

Turning to `COc1cc(C)c(CNC(C)c2cnc(-c3ccncc3)nc2C)cc1C` (centres undefined), the “bacterial growth OD600” value (polymyxin B 0.75 µg/mL) is 0.772. Same read-out and setting: with `CCN(CC)C(=O)C1CCCN(Cc2ccc3c(c2)CN(Cc2cc(OC)ccc2OC)CCO3)C1` (centres undefined) the figure was 0.819; with `CC1(C)CC(CCNC(=O)CCC2(Cc3cccs3)CCC(=O)N2)(c2ccccc2)CCO1` (centres undefined), 0.765; with `CCCn1cc([C@@H]2C[C@H]3CN(Cc4ccccc4OC)C(=O)[C@]34CCCN24)c(C)n1`, 0.874.
